This passage reports binding results from article doi:10.1101/2021.02.09.430424.

Protein sequences, listed by entry. Tags and fused reporters are not part of them.
UniProt Q13546: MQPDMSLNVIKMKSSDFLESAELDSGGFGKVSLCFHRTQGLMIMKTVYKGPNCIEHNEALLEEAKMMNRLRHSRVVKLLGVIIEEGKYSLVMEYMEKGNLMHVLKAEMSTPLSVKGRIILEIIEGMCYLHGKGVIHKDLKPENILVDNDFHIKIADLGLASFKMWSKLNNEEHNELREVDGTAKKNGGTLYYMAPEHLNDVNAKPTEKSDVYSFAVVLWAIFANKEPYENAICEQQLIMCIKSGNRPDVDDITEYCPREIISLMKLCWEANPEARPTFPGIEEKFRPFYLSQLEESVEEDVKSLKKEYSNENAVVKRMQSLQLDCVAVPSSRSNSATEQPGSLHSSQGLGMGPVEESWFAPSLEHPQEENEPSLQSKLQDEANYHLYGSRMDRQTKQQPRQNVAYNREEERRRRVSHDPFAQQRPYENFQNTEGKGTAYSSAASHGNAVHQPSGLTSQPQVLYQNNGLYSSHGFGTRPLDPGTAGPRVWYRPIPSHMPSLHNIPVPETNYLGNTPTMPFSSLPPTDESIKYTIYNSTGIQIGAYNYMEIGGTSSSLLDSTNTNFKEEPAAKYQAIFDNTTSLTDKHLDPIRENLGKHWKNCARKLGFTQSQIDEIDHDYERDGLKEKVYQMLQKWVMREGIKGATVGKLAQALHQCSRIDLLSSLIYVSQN
UniProt O95271: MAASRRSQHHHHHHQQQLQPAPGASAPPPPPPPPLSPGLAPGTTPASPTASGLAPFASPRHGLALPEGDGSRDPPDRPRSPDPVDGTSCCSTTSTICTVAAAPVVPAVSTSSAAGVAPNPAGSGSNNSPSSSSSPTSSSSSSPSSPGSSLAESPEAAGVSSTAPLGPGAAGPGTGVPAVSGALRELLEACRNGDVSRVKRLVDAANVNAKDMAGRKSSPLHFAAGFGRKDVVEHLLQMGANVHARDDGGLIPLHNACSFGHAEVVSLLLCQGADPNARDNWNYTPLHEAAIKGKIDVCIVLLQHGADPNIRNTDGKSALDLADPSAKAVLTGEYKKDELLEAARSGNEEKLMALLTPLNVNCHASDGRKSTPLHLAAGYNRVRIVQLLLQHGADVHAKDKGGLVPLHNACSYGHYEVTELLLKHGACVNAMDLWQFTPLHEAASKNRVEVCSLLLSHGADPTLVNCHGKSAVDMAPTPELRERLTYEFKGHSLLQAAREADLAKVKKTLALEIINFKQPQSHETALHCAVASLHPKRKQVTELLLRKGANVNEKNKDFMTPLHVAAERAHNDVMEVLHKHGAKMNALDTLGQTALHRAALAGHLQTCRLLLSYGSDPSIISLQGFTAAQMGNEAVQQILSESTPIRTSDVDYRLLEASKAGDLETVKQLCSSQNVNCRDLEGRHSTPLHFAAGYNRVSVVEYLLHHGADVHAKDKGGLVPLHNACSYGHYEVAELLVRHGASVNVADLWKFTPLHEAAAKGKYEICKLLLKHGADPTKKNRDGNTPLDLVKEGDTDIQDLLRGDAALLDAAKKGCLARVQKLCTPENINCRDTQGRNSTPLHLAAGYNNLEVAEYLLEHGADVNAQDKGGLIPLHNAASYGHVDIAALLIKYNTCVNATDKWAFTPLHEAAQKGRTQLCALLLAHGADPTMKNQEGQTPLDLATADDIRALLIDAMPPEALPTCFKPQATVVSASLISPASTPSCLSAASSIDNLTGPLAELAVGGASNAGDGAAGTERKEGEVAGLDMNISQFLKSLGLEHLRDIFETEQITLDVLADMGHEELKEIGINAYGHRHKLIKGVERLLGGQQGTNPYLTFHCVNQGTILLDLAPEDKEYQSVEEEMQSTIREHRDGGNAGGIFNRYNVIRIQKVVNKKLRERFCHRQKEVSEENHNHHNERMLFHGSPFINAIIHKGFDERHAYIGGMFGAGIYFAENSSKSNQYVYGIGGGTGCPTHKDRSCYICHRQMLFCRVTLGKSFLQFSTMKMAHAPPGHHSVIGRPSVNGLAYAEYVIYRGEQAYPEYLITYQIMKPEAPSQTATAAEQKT

Results are given in words; binding and its absence hold for the method and conditions named. Binding seen in cells or lysates may run through a third protein. Some entries that bind do so weakly or less than the wild type.

In the experiment the target is RIPK1 (endogenous, human) (human (endogenous in HT1080 and HT29)) (UniProt Q13546). The experiment is described as follows: co-IP.

Regarding “TNKS1 (endogenous, human) (from UniProt O95271 1-1327) (enzyme)”, the binding result is given as “binds”.
